Here are results for one substance from article PMC5489529.

Chains of the proteins cited; added tags and fusions are not shown. Residues count along the entry.
UniProt P98158, residues 26-4660: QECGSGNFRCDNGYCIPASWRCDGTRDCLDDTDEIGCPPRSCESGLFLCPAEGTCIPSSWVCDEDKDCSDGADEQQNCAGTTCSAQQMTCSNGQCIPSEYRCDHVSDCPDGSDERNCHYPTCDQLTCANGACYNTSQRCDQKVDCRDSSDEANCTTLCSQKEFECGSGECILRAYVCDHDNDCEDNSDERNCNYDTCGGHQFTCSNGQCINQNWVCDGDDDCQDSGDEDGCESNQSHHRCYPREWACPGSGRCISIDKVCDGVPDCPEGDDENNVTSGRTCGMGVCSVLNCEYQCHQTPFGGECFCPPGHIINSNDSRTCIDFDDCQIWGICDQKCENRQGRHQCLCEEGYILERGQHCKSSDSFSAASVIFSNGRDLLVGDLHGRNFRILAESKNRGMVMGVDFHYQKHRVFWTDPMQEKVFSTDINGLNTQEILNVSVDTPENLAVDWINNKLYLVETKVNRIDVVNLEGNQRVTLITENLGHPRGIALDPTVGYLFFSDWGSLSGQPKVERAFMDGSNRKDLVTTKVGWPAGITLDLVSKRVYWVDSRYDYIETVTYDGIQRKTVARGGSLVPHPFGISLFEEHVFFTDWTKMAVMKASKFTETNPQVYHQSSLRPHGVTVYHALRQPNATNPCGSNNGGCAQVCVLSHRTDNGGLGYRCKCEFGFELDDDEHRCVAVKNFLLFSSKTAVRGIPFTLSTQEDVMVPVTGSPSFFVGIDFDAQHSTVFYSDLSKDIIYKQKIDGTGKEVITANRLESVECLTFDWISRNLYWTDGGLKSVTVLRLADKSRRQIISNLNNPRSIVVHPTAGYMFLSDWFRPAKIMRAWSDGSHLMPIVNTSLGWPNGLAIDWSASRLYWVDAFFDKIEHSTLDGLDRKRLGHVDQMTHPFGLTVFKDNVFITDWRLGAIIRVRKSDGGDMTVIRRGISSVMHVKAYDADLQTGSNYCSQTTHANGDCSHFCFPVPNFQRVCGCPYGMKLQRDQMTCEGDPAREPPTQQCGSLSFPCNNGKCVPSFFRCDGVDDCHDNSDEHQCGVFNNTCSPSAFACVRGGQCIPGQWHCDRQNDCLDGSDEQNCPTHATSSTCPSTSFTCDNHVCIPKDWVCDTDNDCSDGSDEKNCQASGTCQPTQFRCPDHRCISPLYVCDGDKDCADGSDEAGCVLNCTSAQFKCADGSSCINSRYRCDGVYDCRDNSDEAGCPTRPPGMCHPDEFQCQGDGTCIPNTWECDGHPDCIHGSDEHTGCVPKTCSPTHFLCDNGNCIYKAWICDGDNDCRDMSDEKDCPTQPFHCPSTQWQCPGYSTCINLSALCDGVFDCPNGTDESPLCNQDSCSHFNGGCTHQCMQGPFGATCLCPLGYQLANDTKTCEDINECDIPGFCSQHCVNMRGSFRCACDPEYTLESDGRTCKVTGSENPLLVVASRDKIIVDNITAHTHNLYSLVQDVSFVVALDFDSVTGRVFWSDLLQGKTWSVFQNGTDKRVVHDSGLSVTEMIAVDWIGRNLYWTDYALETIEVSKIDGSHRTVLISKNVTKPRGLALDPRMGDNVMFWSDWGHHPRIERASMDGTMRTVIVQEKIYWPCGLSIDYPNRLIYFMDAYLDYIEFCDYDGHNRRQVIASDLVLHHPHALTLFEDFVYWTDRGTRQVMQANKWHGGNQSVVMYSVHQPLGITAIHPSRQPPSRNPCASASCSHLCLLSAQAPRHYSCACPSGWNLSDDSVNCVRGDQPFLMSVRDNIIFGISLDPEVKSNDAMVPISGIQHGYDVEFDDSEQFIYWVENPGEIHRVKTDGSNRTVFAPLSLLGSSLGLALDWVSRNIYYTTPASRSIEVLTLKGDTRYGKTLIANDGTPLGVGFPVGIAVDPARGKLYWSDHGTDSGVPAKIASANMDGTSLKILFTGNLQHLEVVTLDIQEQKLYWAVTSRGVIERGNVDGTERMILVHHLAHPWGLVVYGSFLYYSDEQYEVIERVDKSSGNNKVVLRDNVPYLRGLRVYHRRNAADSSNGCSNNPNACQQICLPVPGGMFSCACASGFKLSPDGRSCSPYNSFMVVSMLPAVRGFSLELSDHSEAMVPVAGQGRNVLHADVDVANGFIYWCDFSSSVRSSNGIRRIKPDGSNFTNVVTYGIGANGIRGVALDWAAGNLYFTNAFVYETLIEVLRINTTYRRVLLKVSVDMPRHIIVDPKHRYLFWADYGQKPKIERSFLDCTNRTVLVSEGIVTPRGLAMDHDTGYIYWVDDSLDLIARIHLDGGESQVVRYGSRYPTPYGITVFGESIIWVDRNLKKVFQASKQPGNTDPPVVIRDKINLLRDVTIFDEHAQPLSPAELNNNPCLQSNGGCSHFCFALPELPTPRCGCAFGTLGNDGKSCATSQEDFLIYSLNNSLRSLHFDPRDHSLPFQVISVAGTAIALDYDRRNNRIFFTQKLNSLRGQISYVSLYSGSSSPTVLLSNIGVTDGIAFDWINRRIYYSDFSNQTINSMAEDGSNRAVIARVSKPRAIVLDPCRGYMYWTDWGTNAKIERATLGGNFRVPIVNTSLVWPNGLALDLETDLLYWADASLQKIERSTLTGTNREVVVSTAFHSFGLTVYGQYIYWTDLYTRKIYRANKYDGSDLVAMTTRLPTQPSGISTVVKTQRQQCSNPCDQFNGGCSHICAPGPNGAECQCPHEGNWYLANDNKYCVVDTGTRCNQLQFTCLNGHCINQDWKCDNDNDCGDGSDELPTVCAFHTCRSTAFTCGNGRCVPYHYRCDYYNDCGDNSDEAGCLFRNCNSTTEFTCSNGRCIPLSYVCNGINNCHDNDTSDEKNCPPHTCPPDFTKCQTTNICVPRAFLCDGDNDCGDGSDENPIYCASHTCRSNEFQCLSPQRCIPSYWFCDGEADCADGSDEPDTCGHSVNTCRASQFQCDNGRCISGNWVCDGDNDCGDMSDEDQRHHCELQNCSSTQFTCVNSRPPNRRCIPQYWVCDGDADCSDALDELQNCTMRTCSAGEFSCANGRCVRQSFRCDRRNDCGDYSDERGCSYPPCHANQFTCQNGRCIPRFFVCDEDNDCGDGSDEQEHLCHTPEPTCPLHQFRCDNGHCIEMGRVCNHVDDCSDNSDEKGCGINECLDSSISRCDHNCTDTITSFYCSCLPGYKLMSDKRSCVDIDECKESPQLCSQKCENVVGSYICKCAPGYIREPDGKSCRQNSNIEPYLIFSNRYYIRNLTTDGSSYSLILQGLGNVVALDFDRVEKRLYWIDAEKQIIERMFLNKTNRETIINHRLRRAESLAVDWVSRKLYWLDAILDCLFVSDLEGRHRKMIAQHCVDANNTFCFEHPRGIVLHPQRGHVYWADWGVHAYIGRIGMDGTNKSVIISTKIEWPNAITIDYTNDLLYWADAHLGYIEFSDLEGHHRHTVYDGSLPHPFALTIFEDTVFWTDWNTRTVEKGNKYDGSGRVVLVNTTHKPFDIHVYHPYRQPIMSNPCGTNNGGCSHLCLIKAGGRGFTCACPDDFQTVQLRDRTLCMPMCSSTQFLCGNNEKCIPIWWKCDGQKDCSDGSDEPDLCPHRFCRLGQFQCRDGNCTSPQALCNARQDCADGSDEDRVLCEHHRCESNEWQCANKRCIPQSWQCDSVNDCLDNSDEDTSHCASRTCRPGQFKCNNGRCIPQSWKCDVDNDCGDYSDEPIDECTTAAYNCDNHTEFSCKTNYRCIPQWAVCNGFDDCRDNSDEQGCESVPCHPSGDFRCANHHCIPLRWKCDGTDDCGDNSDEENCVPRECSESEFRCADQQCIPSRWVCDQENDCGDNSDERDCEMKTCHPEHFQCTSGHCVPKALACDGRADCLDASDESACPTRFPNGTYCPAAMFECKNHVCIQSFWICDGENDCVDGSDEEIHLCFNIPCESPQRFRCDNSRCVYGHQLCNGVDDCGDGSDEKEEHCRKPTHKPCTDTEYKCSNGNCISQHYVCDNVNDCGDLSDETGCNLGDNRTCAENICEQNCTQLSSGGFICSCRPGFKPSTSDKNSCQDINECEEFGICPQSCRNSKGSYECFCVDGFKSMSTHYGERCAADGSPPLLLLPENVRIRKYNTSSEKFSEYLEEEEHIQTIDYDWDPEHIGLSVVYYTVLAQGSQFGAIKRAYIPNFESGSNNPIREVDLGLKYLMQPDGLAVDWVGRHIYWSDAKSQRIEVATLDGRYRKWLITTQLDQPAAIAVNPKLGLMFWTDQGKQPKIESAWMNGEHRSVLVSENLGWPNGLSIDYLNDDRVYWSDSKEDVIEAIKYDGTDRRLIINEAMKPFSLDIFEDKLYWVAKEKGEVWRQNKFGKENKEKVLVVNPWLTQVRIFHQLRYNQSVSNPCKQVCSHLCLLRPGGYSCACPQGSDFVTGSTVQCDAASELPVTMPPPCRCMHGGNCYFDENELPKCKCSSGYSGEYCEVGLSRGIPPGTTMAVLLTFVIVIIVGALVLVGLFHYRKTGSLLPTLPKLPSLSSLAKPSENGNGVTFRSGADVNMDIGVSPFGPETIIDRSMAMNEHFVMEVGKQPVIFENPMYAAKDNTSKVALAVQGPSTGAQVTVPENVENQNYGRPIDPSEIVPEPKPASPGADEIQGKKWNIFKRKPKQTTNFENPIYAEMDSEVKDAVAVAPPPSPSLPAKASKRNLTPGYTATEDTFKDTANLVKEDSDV
UniProt P30533, residues 35-357: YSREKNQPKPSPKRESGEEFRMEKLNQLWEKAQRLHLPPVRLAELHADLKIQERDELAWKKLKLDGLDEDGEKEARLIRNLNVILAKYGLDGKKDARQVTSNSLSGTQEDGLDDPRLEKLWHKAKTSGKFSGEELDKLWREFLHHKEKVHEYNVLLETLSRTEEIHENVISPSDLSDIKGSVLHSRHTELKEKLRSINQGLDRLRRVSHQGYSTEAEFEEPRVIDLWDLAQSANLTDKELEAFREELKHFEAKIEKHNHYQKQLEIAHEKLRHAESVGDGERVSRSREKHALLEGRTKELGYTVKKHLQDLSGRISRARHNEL

No constants are given. Whether binding was seen depends on the method and setting. Some entries that bind do so weakly or less than the wild type.

The target in this assay is megalin/LRP-2 on BN16 rat yolk sac carcinoma cells (rat (endogenous in BN16)) (UniProt P98158). The experiment in a line: radioligand binding; confluent BN16 cells at 4 °C, 10 nM 125I-proMMP-2:TIMP-2 for up to 2 h, without or with 1 uM RAP, anti-megalin/LRP-2 IgG, anti-LRP-1 IgG or non-immune IgG (100 ug/ml); surface-bound = pronase-sensitive radioactivity; only the binder purified.

For “Receptor-associated protein (RAP) (from UniProt P30533 35-357)”, the binding result is “binds”.
